Results taken from PubChem BioAssay AID504467 (National Center for Advancing Translational Sciences (NCATS), 2011).
Among all 330,000 compounds or so, about 7,700 (2.3%) were called active. The inconclusive results got no clear call from the source; some entries with a clear call stand among them for comparison. Calls come from the whole dose curve; as a rule, active = well fitted inhibition curve with a large enough effect; inconclusive = small, poorly fitted or top-dose-only effect, or effect the other way; inactive = flat fitted curve, though single readings scatter. Potencies of inconclusive entries are doubtful fits and often do not repeat.

assay: qHTS screen for small molecules that inhibit ELG1-dependent DNA repair in human embryonic kidney (HEK293T) cells expressing luciferase-tagged ELG1; conditions: HEK293T ELG1-luciferase reporter, luminescence, 16 h, DNA damage induced by 5-fluorouridine; series mostly up to 46.1 µM; note: nearly all actives have a fitted effect of over 55% in size
How it was run: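 HEK293T cells expressing luciferase-tagged ELG1 (2,000/well) received 5-Fluorouridine plus compound or DMSO for 16 hr at 37 °C. Luciferase was read by ONE-Glo luminescence after 30 min at room temperature.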
Potency is the fitted concentration of half-maximal effect.

Row | SMILES | Potency
1 | COCCNC(=O)c1ccc(CS(=O)(=O)c2ccccc2)o1 | inactive
2 | N#Cc1cc(Cl)c(N2CCOCC2)cc1C#N | inconclusive: 20.6 µM [activator, partial curve, poor fit]
3 | CCc1cc(=O)oc2cc(C)cc(OC(C)C(=O)NCc3cccnc3)c12 (centres undefined) | inactive
4 | CCCCC(=O)N1CCN(c2nc3ccc(Br)cc3s2)CC1 | inconclusive: 29.1 µM [activator, single point]
5 | O=C(c1c(Cl)cccc1Cl)N1CCN(c2ccccn2)CC1 | inconclusive: 16.4 µM [inhibitor, single point]
6 | O=C(c1ccc(Cl)c(S(=O)(=O)NCc2ccco2)c1)N1CCN(c2ccccc2F)CC1 | inconclusive: 29.1 µM [inhibitor, single point]
7 | O=C(c1ccc(COc2ccccc2)o1)N1CCN(S(=O)(=O)c2ccccc2Cl)CC1 | inconclusive: 25.9 µM [inhibitor, single point]
8 | O=C(CN1C(=O)COc2ccc(S(=O)(=O)N3CCOCC3)cc21)NCc1ccccn1 | inactive
9 | COc1ccc(OC)c(CCNC(=O)CS(=O)(=O)Cc2nc(-c3ccccc3C)oc2C)c1 | inconclusive: 12.6 µM [inhibitor, partial curve, poor fit]
10 | CN1CCN(Cc2cc(COCc3ccccc3)c3cccnc3c2O)CC1 | inconclusive: 6.51 µM [inhibitor, single point]
11 | CC1CCN(c2cc(=O)n(C3CCCCC3)c(=O)[nH]2)CC1 | inconclusive: 16.4 µM [activator, partial curve]
12 | O=C(NC(=S)NCc1cccnc1)c1ccccc1 | inactive
13 | NS(=O)(=O)c1ccc(NC(=O)Nc2ccc3c(c2)OCO3)cc1 | inconclusive: 16.4 µM [activator, partial curve]
14 | Cc1nc(C(=O)NNC(=O)c2ccc(C(F)(F)F)cc2)cs1 | inactive
15 | CC(C)(C)n1nc2c(c1NC(=O)Cc1ccccc1)CS(=O)(=O)C2 | inactive
16 | Cc1cc2nc(CN(C)Cc3c(C(=O)N(C)C)nc4ccc(Cl)cn34)[nH]c2cc1C | inconclusive: 20.6 µM [inhibitor, partial curve, poor fit]
17 | C[C@]12c3[nH]c4ccc(Cl)cc4c3CCN1C(=O)[C@@H](CC(=O)NCCN1CCOCC1)C[C@@H]2C(=O)N1CCCCC1 | inconclusive: 18.3 µM [inhibitor, partial curve, poor fit]
18 | Cc1ccc(OCc2cc(C(=O)N(C)Cc3nccn3C)no2)cc1C | inactive
19 | Cc1cc(N2CCC(N(C)C3CCCC3)CC2)nc2cc(O)ccc12 | inactive
20 | Cc1ccc(NC(=O)Nc2ccccc2CC[N+](=O)[O-])cc1 | inactive
21 | O=C(NNc1nc2ccc(F)cc2s1)c1cccc(F)c1 | inconclusive: 18.3 µM [inhibitor, single point]
22 | Cc1ccc(C)c(OCc2nnc(N)s2)c1 | inconclusive: 32.6 µM [activator, partial curve, poor fit]
23 | S=C(NCc1ccccc1)Nc1cccc(Cl)c1 | inactive

A draw from above in order of formula weight, ascending.
Row | SMILES | Potency
22 | Cc1ccc(C)c(OCc2nnc(N)s2)c1 | inconclusive: 32.6 µM [activator, partial curve, poor fit]
12 | O=C(NC(=S)NCc1cccnc1)c1ccccc1 | inactive
1 | COCCNC(=O)c1ccc(CS(=O)(=O)c2ccccc2)o1 | inactive
14 | Cc1nc(C(=O)NNC(=O)c2ccc(C(F)(F)F)cc2)cs1 | inactive
13 | NS(=O)(=O)c1ccc(NC(=O)Nc2ccc3c(c2)OCO3)cc1 | inconclusive: 16.4 µM [activator, partial curve]
19 | Cc1cc(N2CCC(N(C)C3CCCC3)CC2)nc2cc(O)ccc12 | inactive
15 | CC(C)(C)n1nc2c(c1NC(=O)Cc1ccccc1)CS(=O)(=O)C2 | inactive
18 | Cc1ccc(OCc2cc(C(=O)N(C)Cc3nccn3C)no2)cc1C | inactive
3 | CCc1cc(=O)oc2cc(C)cc(OC(C)C(=O)NCc3cccnc3)c12 (centres undefined) | inactive
4 | CCCCC(=O)N1CCN(c2nc3ccc(Br)cc3s2)CC1 | inconclusive: 29.1 µM [activator, single point]
16 | Cc1cc2nc(CN(C)Cc3c(C(=O)N(C)C)nc4ccc(Cl)cn34)[nH]c2cc1C | inconclusive: 20.6 µM [inhibitor, partial curve, poor fit]
7 | O=C(c1ccc(COc2ccccc2)o1)N1CCN(S(=O)(=O)c2ccccc2Cl)CC1 | inconclusive: 25.9 µM [inhibitor, single point]
9 | COc1ccc(OC)c(CCNC(=O)CS(=O)(=O)Cc2nc(-c3ccccc3C)oc2C)c1 | inconclusive: 12.6 µM [inhibitor, partial curve, poor fit]
6 | O=C(c1ccc(Cl)c(S(=O)(=O)NCc2ccco2)c1)N1CCN(c2ccccc2F)CC1 | inconclusive: 29.1 µM [inhibitor, single point]
17 | C[C@]12c3[nH]c4ccc(Cl)cc4c3CCN1C(=O)[C@@H](CC(=O)NCCN1CCOCC1)C[C@@H]2C(=O)N1CCCCC1 | inconclusive: 18.3 µM [inhibitor, partial curve, poor fit]

(next part)

Row | SMILES | Potency
24 | Cc1[nH]c2ccccc2c1C(=O)CSc1ccccc1 | inconclusive: 23.1 µM [activator, single point]
25 | O=C(Nc1nnc(-c2ccco2)o1)c1ccc([N+](=O)[O-])s1 | inconclusive: 18.3 µM [inhibitor, single point]
26 | COc1ccc(-c2cn(Cc3ccc(C(N)=O)cc3)c(-c3ccc(Cl)nc3)n2)cc1 | inconclusive: 20 µM [activator, single point]
27 | CCOC(=O)CSc1nc(N)c(C(=O)Nc2ccc(N(C)C)cc2)s1 | inactive
28 | CCOc1ccc(NC(=O)NC2CCCCCCC2)cc1 | inconclusive: 11.6 µM [activator, partial curve]
29 | O=C(Cc1ccc(F)cc1)NC1CCCCCC1 | inconclusive: 11.6 µM [activator, partial curve, poor fit]
30 | CCC(Sc1ncnc2c1nnn2-c1ccc(F)cc1)C(=O)OC (centres undefined) | inconclusive: 18.4 µM [activator, single point]
31 | O=C(Nc1cccc(Cl)c1)N1CCc2ccccc2C1 | inconclusive: 13 µM [activator, partial curve]
32 | CCOC(=O)N1CCC(NC(=O)CC2C(=O)NCCN2Cc2cccc(F)c2F)CC1 (centres undefined) | inactive
33 | CCOc1ccccc1CNc1ccc(O)cc1 | inconclusive: 14.6 µM [inhibitor, partial curve]
34 | O=C(NNC(=S)NCC1CCCO1)c1cc(Br)ccc1Cl (centres undefined) | inactive
35 | CC(C)n1nc(C(=O)Nc2ccccc2N2CCOCC2)c2ccccc2c1=O | inconclusive: 16.4 µM [inhibitor, single point]
36 | O=C(O)CCCN=CC1=C(O)C(C(=O)c2ccccc2)CCC1=O (centres undefined) | inactive
37 | CC(C)C(=O)Nc1cccc(NC(=O)c2cc3ccccc3o2)c1 | inconclusive: 4.61 µM [activator, partial curve]
38 | CCO[C@@H]1OC(C(=O)NCc2nc3ccccc3[nH]2)=C[C@H](c2ccc(C(F)(F)F)cc2)[C@H]1CCCO | inconclusive: 20.6 µM [inhibitor, single point]
39 | COc1cc(C(=O)OCc2ccc([N+](=O)[O-])cc2)cc(OC)c1OC | inconclusive: 2.31 µM [inhibitor, partial curve, poor fit]
40 | COC(=O)c1cc(S(=O)(=O)NCC2CCN(CCc3cccs3)CC2)cn1C | inactive
41 | CCCCNC(=O)C(=O)Nc1cc2c3c(c1)CCC(=O)N3CCC2 | inconclusive: 29.1 µM [activator, single point]
42 | Cc1nc(-c2ccc(Cl)cc2)sc1C(=O)NN | inconclusive: 5.17 µM [inhibitor, partial curve, poor fit]
43 | O=C(CNC(=O)c1ccco1)Nc1ccc(Cl)cc1 | inconclusive: 18.3 µM [activator, partial curve]
44 | CN(C(=O)COC(=O)/C=C/c1ccc2ccccc2n1)C1CCS(=O)(=O)C1 (centres undefined) | inconclusive: 20.6 µM [inhibitor, single point]
45 | CCCCCCOC(=O)/C=C/c1c(C)[nH]c(=O)[nH]c1=O | inactive
46 | CC(=O)NC1=NN(C(C)=O)C(C)(c2ccc(C)o2)S1 (centres undefined) | inconclusive: 23.1 µM [activator, single point]

Row | SMILES | Potency
47 | CCC(CC)C(=O)Nc1nnc(S(=O)(=O)N2CCCC2)s1 | inactive
48 | COc1cc(SC)ccc1C(=O)Nc1cc(C)ccn1 | inconclusive: 2.31 µM [activator, partial curve]
49 | Cc1csc2c(N3CCN(C(=S)Nc4ccc(F)cc4F)CC3)ncnc12 | inconclusive: 20.6 µM [inhibitor, single point]
50 | COc1ccccc1NC(=O)Nc1cc(NC(=O)Nc2ccccc2OC)c(C)nc1C | inconclusive: 29.1 µM [activator, partial curve, poor fit]
51 | Oc1[nH]c2ccc(Br)cc2c1N=NC(=S)NCC1CCCO1 (centres undefined) | inconclusive: 29.1 µM [inhibitor, single point]
52 | Cn1c(NC(=O)c2ccccc2)c(-c2cccs2)c(=O)c2ccccc21 | inactive
53 | O=C(/C=C/c1ccc(F)cc1)OCC(=O)c1ccc[nH]1 | inconclusive: 25.9 µM [activator, single point]
54 | CN(C)c1ccc(/C=N/NC(=O)CNC(=O)/C=C/c2ccccc2)cc1 | inconclusive: 13 µM [activator, partial curve]
55 | Cc1cc(C)cc(NC(=O)c2ccc([N+](=O)[O-])o2)c1 | inconclusive: 29.1 µM [inhibitor, single point]
56 | O=C(CCn1cnc2ccccc21)N/N=C/c1ccc(O)cc1 | inactive
57 | COc1cnc(-c2ccccc2)nc1Oc1ccccc1C | inconclusive: 1.16 µM [inhibitor, single point]
58 | COc1cc(CN2CCN(Cc3ccc([N+](=O)[O-])cc3)CC2)c([N+](=O)[O-])cc1OC | active: 18.3 µM
59 | CCCOc1ccc(C(=O)Nc2ccc3c(c2)OCO3)cc1 | inconclusive: 6.51 µM [activator, partial curve]
60 | COc1ccc(OC)c(C(=O)CCCC(=O)c2cc(OC)ccc2OC)c1 | inconclusive: 0.259 µM [inhibitor, partial curve, poor fit]
61 | COc1c(C)cc(C(=O)C2CCCN(C(=O)c3cc(C)on3)C2)cc1C (centres undefined) | inconclusive: 18.3 µM [inhibitor, single point]
62 | Cc1nc(N)sc1C(=O)N/N=C/c1ccccc1[N+](=O)[O-] | inconclusive: 2.91 µM [activator, full curve]
63 | Cc1ccc(Cn2ccc(NC(=O)CCSc3nc(-c4ccco4)cc(C(F)(F)F)n3)n2)cc1 | inconclusive: 16.4 µM [inhibitor, partial curve, poor fit]
64 | CC(C)c1cc(C(=O)NNC(=S)NC2CCCCC2)cs1 | inconclusive: 18.3 µM [activator, partial curve]
65 | Cc1cccc(N(Cc2ccccc2)C(=O)c2ccc(S(C)(=O)=O)cc2)c1 | inactive
66 | CCOC(=O)C(NC(=O)c1ccc(OC)cc1)(N1CCOCC1)C(F)(F)F (centres undefined) | inconclusive: 13 µM [inhibitor, partial curve]
67 | CC(C)(C)c1ccc(/C=C2\SC(=O)N(CCNC(=O)c3cccc(S(=O)(=O)N4CCOCC4)c3)C2=O)cc1 | inconclusive: 1.64 µM [activator, partial curve]
68 | COc1cccc(C(=O)n2c(SC)nc3cc4c(cc32)OCCO4)c1 | inconclusive: 18.4 µM [activator, single point]
69 | CCC/C(C)=C/c1ccc(CC)cn1 | inconclusive: 23.1 µM [activator, partial curve, poor fit]
